Record: PubChem BioAssay AID743121 (NCATS, 2013)
Screen: 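Knock-downs that sensitise breast cancer cells to camptothecin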 (primary screen). Cell system: MDA-MB-231 cells, a human breast cancer line. Reagents: single siRNA against human genes, 20 nM siRNA (0.8 pmol per well). Timing: 120 h (drug added 48 h after transfection, read 72 h later). Treatment: camptothecin 20 nM (about EC30) for 72 h; vehicle 0.1% DMSO in parallel plates. Detection: 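CellTiter-Glo ATP signal, scaled to control siRNA as percent viability; sensitisation given as log2 of untreated divided by camptothecin-treated viability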. Scale: log2 vehicle/camptothecin viability: higher = stronger sensitisation to camptothecin; viability with camptothecin: higher = more viable cells. Rule for the call: 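Each gene scored by redundant siRNA activity (RSA) over its individual siRNA ratios; a gene is called active at p < 0.001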.
This is one part, drawn at random, of about 26,000 deposited reagents. 167 of them (0.63%) count as active. 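Calls are per gene from RSA p-values that are not deposited; an individual active-marked siRNA can sensitise only weakly.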 Reagents against one gene are numbered here. Not all columns of the deposit are shown. Reagent sequences are not shown.

For KDM5A #1 the deposit lists log2 vehicle/camptothecin viability -0.263; viability with camptothecin (% of control) = 92; inactive. KDM5A #2 showed log2 vehicle/camptothecin viability -0.271; viability with camptothecin (% of control) = 76.5; inactive. After knock-down of KDM5A #3, the record shows log2 vehicle/camptothecin viability 0.09; viability with camptothecin (% of control) = 51.9; inactive. Knock-down of BCL2L11 #1 resulted in: log2 vehicle/camptothecin viability 0.011; viability with camptothecin (% of control) = 93.1; inactive. For BCL2L11 #2, the values are log2 vehicle/camptothecin viability -0.143; viability with camptothecin (% of control) = 107; inactive. Against BCL2L11 #3 the deposit lists log2 vehicle/camptothecin viability 0.0802; viability with camptothecin (% of control) = 105; inactive.

After knock-down of BCL2L11 #4 the results were log2 vehicle/camptothecin viability -0.125; viability with camptothecin (% of control) = 59.7; inactive. After knock-down of BCL2L11 #5, the screen gave log2 vehicle/camptothecin viability -0.491; viability with camptothecin (% of control) = 97.8; inactive. BCL2L11 #6 gave log2 vehicle/camptothecin viability -0.0426; viability with camptothecin (% of control) = 108; inactive. Depletion of BCL2L11 #7 resulted in: log2 vehicle/camptothecin viability -0.166; viability with camptothecin (% of control) = 85.9; inactive. BCL2L11 #8 gave log2 vehicle/camptothecin viability 0.362; viability with camptothecin (% of control) = 47.4; inactive. After knock-down of MED13L #1, the record shows log2 vehicle/camptothecin viability -0.477; viability with camptothecin (% of control) = 89.4; inactive.

MED13L #2 gave log2 vehicle/camptothecin viability 0.0198; viability with camptothecin (% of control) = 86.8; inactive. After knock-down of MED13L #3 the results were log2 vehicle/camptothecin viability -0.324; viability with camptothecin (% of control) = 95.7; inactive. After knock-down of MED13L #4, the screen gave log2 vehicle/camptothecin viability 0.373; viability with camptothecin (% of control) = 32.9; inactive. MAP3K4 #1 scored log2 vehicle/camptothecin viability -0.284; viability with camptothecin (% of control) = 104; inactive. With knock-down of MAP3K4 #2 the results were log2 vehicle/camptothecin viability -0.736; viability with camptothecin (% of control) = 67.1; inactive. Knock-down of MAP3K4 #3 gave: log2 vehicle/camptothecin viability -0.16; viability with camptothecin (% of control) = 120; inactive.

MAP3K4 #4 gave log2 vehicle/camptothecin viability -0.124; viability with camptothecin (% of control) = 86.4; inactive. Against MYBL2 #1 the deposit lists log2 vehicle/camptothecin viability -0.108; viability with camptothecin (% of control) = 64.3; inactive. With knock-down of MYBL2 #2, the screen gave log2 vehicle/camptothecin viability -0.662; viability with camptothecin (% of control) = 40.1; inactive. Against MYBL2 #3, the entry reads log2 vehicle/camptothecin viability -0.159; viability with camptothecin (% of control) = 76.6; inactive. For MYBL2 #4, the entry reads log2 vehicle/camptothecin viability -0.0906; viability with camptothecin (% of control) = 93.8; inactive. For ADAMTS3 #1, the entry reads log2 vehicle/camptothecin viability -0.159; viability with camptothecin (% of control) = 117; inactive.

Against ADAMTS3 #2, the values are log2 vehicle/camptothecin viability -0.288; viability with camptothecin (% of control) = 50.9; inactive. Against ADAMTS3 #3 the deposit lists log2 vehicle/camptothecin viability -0.15; viability with camptothecin (% of control) = 46.6; inactive. Depletion of ADAMTS3 #4 came out at: log2 vehicle/camptothecin viability 0.0694; viability with camptothecin (% of control) = 80.7; inactive. Against TRIM49B #1, the entry reads log2 vehicle/camptothecin viability -0.388; viability with camptothecin (% of control) = 75; inactive. Silencing of TRIM49B #2 came out at: log2 vehicle/camptothecin viability -0.0778; viability with camptothecin (% of control) = 115; inactive. Against TRIM49B #3, the values are log2 vehicle/camptothecin viability -0.138; viability with camptothecin (% of control) = 58.6; inactive.

With knock-down of TRIM49B #4 the results were log2 vehicle/camptothecin viability -0.49; viability with camptothecin (% of control) = 61.2; inactive. Against MCTS1 #1, the values are log2 vehicle/camptothecin viability -0.398; viability with camptothecin (% of control) = 84.2; inactive. Depletion of MCTS1 #2 resulted in: log2 vehicle/camptothecin viability -0.188; viability with camptothecin (% of control) = 104; inactive. After knock-down of MCTS1 #3 the results were log2 vehicle/camptothecin viability -0.566; viability with camptothecin (% of control) = 78.5; inactive. MCTS1 #4 scored log2 vehicle/camptothecin viability -0.176; viability with camptothecin (% of control) = 102; inactive.

Taken from above:
Entry of TRIM49B #3 under “outcome”: inactive
Entry of BCL2L11 #3 in “viability with camptothecin (% of control)”: 105
Value of MYBL2 #3 in “viability with camptothecin (% of control)”: 76.6
Value of BCL2L11 #2 in “outcome”: inactive
